assay: Electrochemical switching (Switch: reversible photochromic/electrochromic conversion); format: physicochemical; design: key: Y: “Switch” refers to the ability (yes or no) of the compound to be reversibly converted under photochromic and electrochromic conditions between a ring-open isomer and ring-closed isomer; details: reversibly converted under photochromic and electrochromic conditions

Structure (SMILES) | Switch
Cc1sc(-c2cc(C3=C(c4cc(-c5sc(C)c6c5OCCO6)sc4-c4sc(C)c5c4OCCO5)C(F)(F)C(F)(F)C3(F)F)c(-c3sc(C)c4c3OCCO4)s2)c2c1OCCO2 [S036] | Y
N#Cc1ccc(-c2ccc(-c3cc(C4=C(c5cc(-c6ccc(-c7ccc(C#N)s7)s6)sc5-c5cccs5)C(F)(F)C(F)(F)C4(F)F)c(-c4cccs4)s3)s2)s1 [S037, 4″,4″″″-(perfluorocyclopent-1-ene-1,2-diyl)bis(([2,2′:5′,2″:5″,2″′-quaterthiophene]-5-carbonitrile))] | Y
FC1(F)C(c2cc(-c3ccc(/C=C/c4ccccc4)s3)sc2-c2cccs2)=C(c2cc(-c3ccc(/C=C/c4ccccc4)s3)sc2-c2cccs2)C(F)(F)C1(F)F [S038, (E)-4′,4″″-(perfluorocyclopent-1-ene-1,2-diyl)bis(5-((E)-styryl)-2,2′:5′,2″-terthiophene)] | Y
Cc1cc(-c2sc(C)c(C)c2C2=C(c3c(-c4cc(C)c(C)s4)sc(C)c3C)C(F)(F)C(F)(F)C2(F)F)sc1C [S039, 3,3′-(perfluorocyclopent-1-ene-1,2-diyl)bis(4,4′,5,5′-tetramethyl-2,2′-bithiophene)] | Y
CC(C)(C)c1ccc(-c2cc(C3=C(c4cc(-c5ccc(C(C)(C)C)cc5)sc4-c4ccc(C(C)(C)C)cc4)C(F)(F)C(F)(F)C3(F)F)c(-c3ccc(C(C)(C)C)cc3)s2)cc1 [S042] | Y
FC(F)(F)c1ccc(-c2cc(C3=C(c4cc(-c5ccc(C(F)(F)F)cc5)sc4-c4ccc(C(F)(F)F)cc4)C(F)(F)C(F)(F)C3(F)F)c(-c3ccc(C(F)(F)F)cc3)s2)cc1 [S044, 3,3′-(perfluorocyclopent-1-ene-1,2-diyl)bis(2,5-bis(4-(trifluoromethyl)phenyl)thiophene)] | Y
CC(C)(C)c1ccc(-c2cc(C3=C(c4cc(-c5ccc(C(C)(C)C)cc5)sc4-c4cccs4)C(F)(F)C(F)(F)C3(F)F)c(-c3cccs3)s2)cc1 [S049, 3,3″-(perfluorocyclopent-1-ene-1,2-diyl)bis(5-(4-(tert-butyl)phenyl)-2,2′-bithiophene)] | Y
CC(C)(C)c1ccc(-c2sc(-c3cccs3)cc2C2=C(c3cc(-c4cccs4)sc3-c3ccc(C(C)(C)C)cc3)C(F)(F)C(F)(F)C2(F)F)cc1 [S052, 4,4″-(perfluorocyclopent-1-ene-1,2-diyl)bis(5-(4-(tert-butyl)phenyl)-2,2′-bithiophene)] | Y
COc1ccc(-c2cc(C3=C(c4cc(-c5ccc(OC)cc5)sc4-c4ccc(OC)cc4)C(F)(F)C(F)(F)C3(F)F)c(-c3ccc(OC)cc3)s2)cc1 [S054, 3,3′-(perfluorocyclopent-1-ene-1,2-diyl)bis(2,5-bis(4-methoxyphenyl)thiophene)] | Y
c1ccc(-c2cc(-c3nc(-c4ccccc4)sc3-c3cc(-c4ccccc4)sc3-c3ccccc3)c(-c3ccccc3)s2)cc1 [S055, 4,5-bis(2,5-diphenylthiophen-3-yl)-2-phenylthiazole] | Y
FC1(F)C(c2cc(-c3ccc(Cl)cc3)sc2-c2ccc(Cl)cc2)=C(c2cc(-c3ccc(Cl)cc3)sc2-c2ccc(Cl)cc2)C(F)(F)C1(F)F [S056, 3,3′-(perfluorocyclopent-1-ene-1,2-diyl)bis(2,5-bis(4-chlorophenyl)thiophene)] | Y
CC(C)(C)c1ccc(-c2sc(-c3ccccc3)cc2C2=C(c3cc(-c4ccccc4)sc3-c3ccc(C(C)(C)C)cc3)C(F)(F)C(F)(F)C2(F)F)cc1 [S057, 3,3′-(perfluorocyclopent-1-ene-1,2-diyl)bis(2-(4-tert-butylphenyl)-5-phenylthiophene)] | Y
CC(C)(C)c1ccc(-c2sc(-c3ccc(Cl)cc3)cc2C2=C(c3cc(-c4ccc(Cl)cc4)sc3-c3ccc(C(C)(C)C)cc3)C(F)(F)C(F)(F)C2(F)F)cc1 [S060] | Y
CC(=O)c1ccc(-c2cc(C3=C(c4cc(-c5ccccc5)sc4-c4ccc(C(C)(C)C)cc4)C(F)(F)C(F)(F)C3(F)F)c(-c3ccc(C(C)(C)C)cc3)s2)cc1 [S065, 1-(4-(5-(4-tert-butylphenyl)-4-(2-(2-(4-tert-butylphenyl)-5-phenylthiophen-3-yl)-3,3,4,4,5,5-hexafluorocyclopent-1-enyl)thiophen-2-yl)phenyl)ethanone] | Y
CC(C)(C)c1ccc(-c2sc(-c3ccc(C4(C)OCCO4)cc3)cc2C2=C(c3cc(-c4ccc(C5(C)OCCO5)cc4)sc3-c3ccc(C(C)(C)C)cc3)C(F)(F)C(F)(F)C2(F)F)cc1 [S066, 2,2′-((4,4′-(perfluorocyclopent-1-ene-1,2-diyl)bis(5-(4-(tert-butyl)phenyl)thiophene-4,2-diyl))bis(4,1-phenylene))bis(2-methyl-1,3-dioxolane)] | Y
CC(C)(C)c1ccc(-c2sc(-c3ccc(C(C)(C)O)cc3)cc2C2=C(c3cc(-c4ccc(C(C)(C)O)cc4)sc3-c3ccc(C(C)(C)C)cc3)C(F)(F)C(F)(F)C2(F)F)cc1 [S067, 2,2′-((4,4′-(perfluorocyclopent-1-ene-1,2-diyl)bis(5-(4-(tert-butyl)phenyl)thiophene-4,2-diyl))bis(4,1-phenylene))bis(propan-2-ol)] | Y

Structure (SMILES) | Switch
COCCOCCOCCOC(C)(C)c1ccc(-c2cc(C3=C(c4cc(-c5ccc(C(C)(C)OCCOCCOCCOC)cc5)sc4-c4ccc(C(C)(C)C)cc4)C(F)(F)C(F)(F)C3(F)F)c(-c3ccc(C(C)(C)C)cc3)s2)cc1 [S068, 12,12′-((4,4′-(perfluorocyclopent-1-ene-1,2-diyl)bis(5-(4-(tert-butyl)phenyl)thiophene-4,2-diyl))bis(4,1-phenylene))bis(12-methyl-2,5,8,11-tetraoxatridecane)] | Y
CC(C)(C)c1ccc(-c2sc(C(C)(C)C)cc2C2=C(c3cc(C(C)(C)C)sc3-c3ccc(C(C)(C)C)s3)C(F)(F)C(F)(F)C2(F)F)s1 [S073, 3,3′-(perfluorocyclopent-1-ene-1,2-diyl)bis(5,5′-di-tert-butyl-2,2′-bithiophene)] | Y
N#Cc1ccc(-c2cc(C3=C(c4cc(-c5ccc(C#N)cc5)sc4-c4ccc(C#N)cc4)C(F)(F)C(F)(F)C3(F)F)c(-c3ccc(C#N)cc3)s2)cc1 [S074, 3,3′-(perfluorocyclopent-1-ene-1,2-diyl)bis(2,5-bis(4-cyanophenyl)thiophene)] | Y
c1ccc(-c2nc(-c3cc(-c4cccs4)sc3-c3cccs3)c(-c3cc(-c4cccs4)sc3-c3cccs3)s2)cc1 [S075] | Y
CCCCCCCCc1ccc(-c2oc3ccccc3c2C2=C(c3c(-c4ccc(CCCCCCCC)cc4)oc4ccccc34)C(F)(F)C(F)(F)C2(F)F)cc1 [S079, 1,2-bis(2-(4-n-octylphenyl)-1-benzofuran-3-yl)perfluorocyclopentene] | Y
COc1ccc(-c2oc3ccc(OC)cc3c2C2=C(c3c(-c4ccc(OC)cc4)oc4ccc(OC)cc34)C(F)(F)C(F)(F)C2(F)F)cc1 [S083] | Y
Oc1ccc(-c2cc(C3=C(c4cc(-c5ccc(O)cc5)sc4-c4ccc(O)cc4)C(F)(F)C(F)(F)C3(F)F)c(-c3ccc(O)cc3)s2)cc1 [S084, 3,3′-(perfluorocyclopent-1-ene-1,2-diyl)bis(2,5-bis(4-hydroxyphenyl)thiophene)] | Y
COc1ccc(-c2sc(-c3ccc(C#N)cc3)cc2C2=C(c3cc(-c4ccc(C#N)cc4)sc3-c3ccc(OC)cc3)C(F)(F)C(F)(F)C2(F)F)cc1 [S085] | Y
COc1ccc(-c2cc(C3=C(c4cc(-c5ccc(OC)cc5)sc4-c4ccc(C#N)cc4)C(F)(F)C(F)(F)C3(F)F)c(-c3ccc(C#N)cc3)s2)cc1 [S086, 4,4′-(3,3′-(perfluorocyclopent-1-ene-1,2-diyl)bis(5-(4-methoxyphenyl)thiophene-3,2-diyl))dibenzonitrile] | Y
COc1ccc(-c2cc(C3=C(c4cc(-c5ccc(C#N)cc5)sc4-c4ccc(OC)cc4)C(F)(F)C(F)(F)C3(F)F)c(-c3ccc(C#N)cc3)s2)cc1 [S087, 4-(3-(2-(5-(4-cyanophenyl)-2-(4-methoxyphenyl)thiophen-3-yl)-3,3,4,4,5,5-hexafluorocyclopent-1-en-1-yl)-5-(4-methoxyphenyl)thiophen-2-yl)benzonitrile] | Y
COc1ccc(-c2sc(-c3ccc(/C=C/c4ccccc4)cc3)cc2C2=C(c3cc(-c4ccc(/C=C/c5ccccc5)cc4)sc3-c3ccc(OC)cc3)C(F)(F)C(F)(F)C2(F)F)cc1 [S088, (E)-3,3′-(perfluorocyclopent-1-ene-1,2-diyl)bis(2-(4-methoxyphenyl)-5-(4-((E)-styryl)phenyl)thiophene)] | Y
COc1ccc(-c2sc(-c3ccc(/C=C/C=C/c4ccccc4)cc3)cc2C2=C(c3cc(-c4ccc(/C=C/C=C/c5ccccc5)cc4)sc3-c3ccc(OC)cc3)C(F)(F)C(F)(F)C2(F)F)cc1 [S089, 3,3′-(perfluorocyclopent-1-ene-1,2-diyl)bis(2-(4-methoxyphenyl)-5-(4-((1E,3E)-4-phenylbuta-1,3-dien-1-yl)phenyl)thiophene)] | Y
COc1ccc(-c2sc(-c3ccc(OCCOc4ccc(N(c5ccc(Cl)cc5)c5ccc(Cl)cc5)cc4)cc3)cc2C2=C(c3cc(-c4ccc(OCCOc5ccc(N(c6ccc(Cl)cc6)c6ccc(Cl)cc6)cc5)cc4)sc3-c3ccc(OC)cc3)C(F)(F)C(F)(F)C2(F)F)cc1 [S090, 4,4′-(((((4,4′-(perfluorocyclopent-1-ene-1,2-diyl)bis(5-(4-methoxyphenyl)thiophene-4,2-diyl))bis(4,1-phenylene))bis(oxy))bis(ethane-2,1-diyl))bis(oxy))bis(N,N-bis(4-chlorophenyl)aniline)] | Y
CCOc1ccc(-c2cc(C3=C(c4cc(-c5ccc(OCC)cc5)sc4-c4ccc(OCC)cc4)C(F)(F)C(F)(F)C3(F)F)c(-c3ccc(OCC)cc3)s2)cc1 [S091, 3,3′-(perfluorocyclopent-1-ene-1,2-diyl)bis(2,5-bis(4-ethoxyphenyl)thiophene)] | Y
CC(C)Oc1ccc(-c2cc(C3=C(c4cc(-c5ccc(OC(C)C)cc5)sc4-c4ccc(OC(C)C)cc4)C(F)(F)C(F)(F)C3(F)F)c(-c3ccc(OC(C)C)cc3)s2)cc1 [S092, 3,3′-(perfluorocyclopent-1-ene-1,2-diyl)bis(2,5-bis(4-isopropoxyphenyl)thiophene)] | Y

From patent publication US10072023B2, “Diarylethene compounds and uses thereof” (SWITCH MATERIALS, INC., priority 2011, dated 2018)
